Results are given in words; binding and its absence hold for the method and conditions named. Binding seen in cells or lysates may run through a third protein. These calls come from enrichment with a bait or labelling near it, and not all partners need be listed. Sequences can lack the tags named with a protein.
B1: PRDX1 (protein, UniProt Q06830 1-199)
chain: MSSGNAKIGHPAPNFKATAVMPDGQFKDISLSDYKGKYVVFFFYPLDFTFVCPTEIIAFSDRAEEFKKLNCQVIGASVDSHFCHLAWVNTPKKQGGLGPMNIPLVSDPKRTIAQDYGVLKADEGISFRGLFIIDDKGILRQITVNDLPVGRSVDETLRLVQAFQFTDKHGEVCPAGWKPGSDTIKPDVQKSKEYFSKQK
B2: O-linked N-acetylglucosamine transferase (OGT) (enzyme, UniProt O15294 1-1046)
chain: MASSVGNVADSTEPTKRMLSFQGLAELAHREYQAGDFEAAERHCMQLWRQEPDNTGVLLLLSSIHFQCRRLDRSAHFSTLAIKQNPLLAEAYSNLGNVYKERGQLQEAIEHYRHALRLKPDFIDGYINLAAALVAAGDMEGAVQAYVSALQYNPDLYCVRSDLGNLLKALGRLEEAKACYLKAIETQPNFAVAWSNLGCVFNAQGEIWLAIHHFEKAVTLDPNFLDAYINLGNVLKEARIFDRAVAAYLRALSLSPNHAVVHGNLACVYYEQGLIDLAIDTYRRAIELQPHFPDAYCNLANALKEKGSVAEAEDCYNTALRLCPTHADSLNNLANIKREQGNIEEAVRLYRKALEVFPEFAAAHSNLASVLQQQGKLQEALMHYKEAIRISPTFADAYSNMGNTLKEMQDVQGALQCYTRAIQINPAFADAHSNLASIHKDSGNIPEAIASYRTALKLKPDFPDAYCNLAHCLQIVCDWTDYDERMKKLVSIVADQLEKNRLPSVHPHHSMLYPLSHGFRKAIAERHGNLCLDKINVLHKPPYEHPKDLKLSDGRLRVGYVSSDFGNHPTSHLMQSIPGMHNPDKFEVFCYALSPDDGTNFRVKVMAEANHFIDLSQIPCNGKAADRIHQDGIHILVNMNGYTKGARNELFALRPAPIQAMWLGYPGTSGALFMDYIITDQETSPAEVAEQYSEKLAYMPHTFFIGDHANMFPHLKKKAVIDFKSNGHIYDNRIVLNGIDLKAFLDSLPDVKIVKMKCPDGGDNADSSNTALNMPVIPMNTIAEAVIEMINRGQIQITINGFSISNGLATTQINNKAATGEEVPRTIIVTTRSQYGLPEDAIVYCNFNQLYKIDPSTLQMWANILKRVPNSVLWLLRFPAVGEPNIQQYAQNMGLPQNRIIFSPVAPKEEHVRRGQLADVCLDTPLCNGHTTGMDVLWAGTPMVTMPGETLASRVAASQLTCLGCLELIAKNRQEYEDIAVKLGTDLEYLKKVRGKVWKQRISSPLFNTKQYTMELERLYLQMWEHYAAGNKPDHMIKPVEVTESA

Protein sequences, listed by entry. Tags and fused reporters are not part of them.
UniProt Q12756: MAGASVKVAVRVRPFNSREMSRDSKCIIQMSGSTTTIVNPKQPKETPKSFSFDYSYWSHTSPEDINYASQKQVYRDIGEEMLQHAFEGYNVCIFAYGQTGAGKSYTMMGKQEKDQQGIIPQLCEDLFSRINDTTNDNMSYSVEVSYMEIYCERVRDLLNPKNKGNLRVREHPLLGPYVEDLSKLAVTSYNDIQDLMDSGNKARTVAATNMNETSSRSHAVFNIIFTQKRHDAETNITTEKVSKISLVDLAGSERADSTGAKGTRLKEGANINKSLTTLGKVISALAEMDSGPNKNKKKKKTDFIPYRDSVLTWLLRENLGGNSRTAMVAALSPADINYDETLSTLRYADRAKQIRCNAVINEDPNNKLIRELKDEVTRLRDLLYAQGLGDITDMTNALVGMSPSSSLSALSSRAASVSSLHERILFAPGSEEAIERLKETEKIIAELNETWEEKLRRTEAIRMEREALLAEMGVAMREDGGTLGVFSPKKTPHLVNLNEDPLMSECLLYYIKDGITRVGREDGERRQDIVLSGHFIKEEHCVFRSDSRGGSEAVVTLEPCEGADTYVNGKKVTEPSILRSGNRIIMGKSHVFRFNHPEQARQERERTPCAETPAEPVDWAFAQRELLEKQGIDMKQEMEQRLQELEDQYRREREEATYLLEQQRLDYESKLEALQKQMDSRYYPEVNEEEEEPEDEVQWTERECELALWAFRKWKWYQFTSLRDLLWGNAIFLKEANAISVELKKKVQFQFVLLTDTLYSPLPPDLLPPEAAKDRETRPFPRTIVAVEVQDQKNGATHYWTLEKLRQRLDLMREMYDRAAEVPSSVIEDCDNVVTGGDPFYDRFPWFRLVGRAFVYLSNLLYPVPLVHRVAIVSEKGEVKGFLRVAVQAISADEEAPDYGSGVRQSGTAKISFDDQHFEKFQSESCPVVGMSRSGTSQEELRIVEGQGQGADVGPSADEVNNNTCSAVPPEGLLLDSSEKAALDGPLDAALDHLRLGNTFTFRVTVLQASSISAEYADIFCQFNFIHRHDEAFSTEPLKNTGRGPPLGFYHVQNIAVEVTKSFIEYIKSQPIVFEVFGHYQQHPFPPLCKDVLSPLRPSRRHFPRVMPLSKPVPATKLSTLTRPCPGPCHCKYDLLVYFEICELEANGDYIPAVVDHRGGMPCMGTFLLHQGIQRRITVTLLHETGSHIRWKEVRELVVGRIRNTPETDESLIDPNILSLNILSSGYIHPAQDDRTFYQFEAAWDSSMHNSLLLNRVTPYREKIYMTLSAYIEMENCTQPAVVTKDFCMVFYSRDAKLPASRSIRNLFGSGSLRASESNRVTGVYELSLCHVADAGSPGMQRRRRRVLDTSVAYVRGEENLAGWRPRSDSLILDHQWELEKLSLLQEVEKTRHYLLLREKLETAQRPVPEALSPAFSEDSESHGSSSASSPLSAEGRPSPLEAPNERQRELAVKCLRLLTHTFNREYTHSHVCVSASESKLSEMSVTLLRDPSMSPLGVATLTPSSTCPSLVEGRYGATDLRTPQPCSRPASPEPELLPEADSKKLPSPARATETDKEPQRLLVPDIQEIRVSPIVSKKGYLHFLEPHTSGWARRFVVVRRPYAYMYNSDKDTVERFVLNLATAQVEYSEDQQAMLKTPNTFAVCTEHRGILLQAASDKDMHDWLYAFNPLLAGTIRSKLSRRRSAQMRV

Molecular target: Kinesin-like protein (KIF1A) (human (endogenous in LNCaP-AI and LNCaP)) (UniProt Q12756)
Experiment: affinity purification with mass spectrometry; immunoprecipitation of KIF1A from LNCaP-AI cells and mass spectrometry to screen for KIF1A-binding proteins

Row | Binder | binding
1 | B1 | binds
2 | B2 | binds
